Patent US20110297235A1, “USE OF TRIARYLAMINE DERIVATIVES AS HOLE-CONDUCTING MATERIALS IN ORGANIC SOLAR CELLS AND ORGANIC SOLAR CELLS CONTAINING SAID TRIARYLAMINE DERIVATIVES” (BASF SE, priority 2009, published 2011)

Experiment: Test in solid dye solar cells (DSC): current/voltage characteristic under solar simulator
[1] = 0.1 sun, dye D102, TiO2 approx. 1.8 μm
[2] = 0.1 sun, dye D205, TiO2 approx. 1.8 μm
[3] = 0.1 sun, dye perylene 1, TiO2 approx. 1.8 μm
[4] = 0.1 sun, dye perylene 2, TiO2 approx. 1.8 μm
[5] = 1 sun, dye D102, TiO2 approx. 1.8 μm
[6] = 1 sun, dye D205, TiO2 approx. 1.8 μm
[7] = 1 sun, dye perylene 1, TiO2 approx. 1.8 μm
[8] = 1 sun, dye perylene 2, TiO2 approx. 1.8 μm
[9] = 0.1 sun, dye D102, TiO2 approx. 2.2 μm
[10] = 1 sun, dye D102, TiO2 approx. 2.2 μm
[11] = 0.1 sun, dye perylene 3, TiO2 approx. 3.1 μm
[12] = 1 sun, dye perylene 3, TiO2 approx. 3.1 μm

COc1ccc(N(c2ccc(OC)cc2)c2ccc(-c3ccc(N(c4ccc(OC)cc4)c4ccc(-c5ccc(N(c6ccc(OC)cc6)c6ccc(-c7ccc(N(c8ccc(OC)cc8)c8ccc(OC)cc8)cc7)cc6)cc5)cc4)cc3)cc2)cc1 [ID367]
efficiency [1]: 5.3% | fill factor (FF) [1]: 68% | short-circuit current density ISC [1]: 1.01 mA/cm^2 | terminal voltage VOC with an open circuit [1]: 0.78 V | efficiency [2]: 5.4% | fill factor (FF) [2]: 70% | short-circuit current density ISC [2]: 0.97 mA/cm^2 | terminal voltage VOC with an open circuit [2]: 0.80 V | efficiency [3]: 1.3% | fill factor (FF) [3]: 53% | short-circuit current density ISC [3]: 0.38 mA/cm^2 | terminal voltage VOC with an open circuit [3]: 0.66 V | efficiency [4]: 2.3% | fill factor (FF) [4]: 68% | short-circuit current density ISC [4]: 0.42 mA/cm^2 | terminal voltage VOC with an open circuit [4]: 0.78 V | efficiency [5]: 4.4% | fill factor (FF) [5]: 53% | short-circuit current density ISC [5]: 9.76 mA/cm^2 | terminal voltage VOC with an open circuit [5]: 0.86 V | efficiency [6]: 3.7% | fill factor (FF) [6]: 46% | short-circuit current density ISC [6]: 8.92 mA/cm^2 | terminal voltage VOC with an open circuit [6]: 0.88 V | efficiency [7]: 1.1% | fill factor (FF) [7]: 51% | short-circuit current density ISC [7]: 2.78 mA/cm^2 | terminal voltage VOC with an open circuit [7]: 0.74 V | efficiency [8]: 2.0% | fill factor (FF) [8]: 54% | short-circuit current density ISC [8]: 4.39 mA/cm^2 | terminal voltage VOC with an open circuit [8]: 0.84 V

COc1ccc(N(c2ccc(OC)cc2)c2ccc(-c3ccc(N(c4ccc(OC)cc4)c4ccc5c(c4)C(C)(C)c4cc(N(c6ccc(OC)cc6)c6ccc(-c7ccc(N(c8ccc(OC)cc8)c8ccc(OC)cc8)cc7)cc6)ccc4-5)cc3)cc2)cc1 [ID447]
efficiency [1]: 3.8% | fill factor (FF) [1]: 56% | short-circuit current density ISC [1]: 0.91 mA/cm^2 | terminal voltage VOC with an open circuit [1]: 0.72 V | efficiency [5]: 1.8% | fill factor (FF) [5]: 33% | short-circuit current density ISC [5]: 6.95 mA/cm^2 | terminal voltage VOC with an open circuit [5]: 0.78 V

COc1ccc(N(c2ccc(-c3ccc(N(c4ccc(OC)cc4)c4ccc(-c5ccc(N(c6ccc(OC)cc6)c6ccc7c(c6)C(C)(C)c6ccccc6-7)cc5)cc4)cc3)cc2)c2ccc(-c3ccc(N(c4ccc(OC)cc4)c4ccc5c(c4)C(C)(C)c4ccccc4-5)cc3)cc2)cc1 [ID453]
efficiency [1]: 4.5% | fill factor (FF) [1]: 61% | short-circuit current density ISC [1]: 0.87 mA/cm^2 | terminal voltage VOC with an open circuit [1]: 0.84 V | efficiency [5]: 2.3% | fill factor (FF) [5]: 34% | short-circuit current density ISC [5]: 7.75 mA/cm^2 | terminal voltage VOC with an open circuit [5]: 0.90 V

COc1ccc(N(c2ccc(OC)cc2)c2ccc3c(c2)C(C)(C)c2cc(N(c4ccc(OC)cc4)c4ccc(-c5ccc(N(c6ccc(OC)cc6)c6ccc7c(c6)C(C)(C)c6cc(N(c8ccc(OC)cc8)c8ccc(OC)cc8)ccc6-7)cc5)cc4)ccc2-3)cc1 [ID518]
efficiency (0.1 sun, dye D205, TiO2 3.2 μm): 3.8% | fill factor (FF) (0.1 sun, dye D205, TiO2 3.2 μm): 63% | short-circuit current density ISC (0.1 sun, dye D205, TiO2 3.2 μm): 0.81 mA/cm^2 | terminal voltage VOC with an open circuit (0.1 sun, dye D205, TiO2 3.2 μm): 0.74 V | efficiency (1 sun, dye D205, TiO2 3.2 μm): 2.3% | fill factor (FF) (1 sun, dye D205, TiO2 3.2 μm): 33% | short-circuit current density ISC (1 sun, dye D205, TiO2 3.2 μm): 8.57 mA/cm^2 | terminal voltage VOC with an open circuit (1 sun, dye D205, TiO2 3.2 μm): 0.82 V

COc1ccc(N(c2ccc(OC)cc2)c2ccc(-c3ccc(N(c4ccc(OC)cc4)c4ccc5c(c4)c4cc(N(c6ccc(OC)cc6)c6ccc(-c7ccc(N(c8ccc(OC)cc8)c8ccc(OC)cc8)cc7)cc6)ccc4n5-c4ccccc4)cc3)cc2)cc1 [ID522]
efficiency [9]: 4.4% | fill factor (FF) [9]: 69% | short-circuit current density ISC [9]: 0.83 mA/cm^2 | terminal voltage VOC with an open circuit [9]: 0.76 V | efficiency (0.1 sun, dye D205, TiO2 3.2 μm): 2.7% | fill factor (FF) (0.1 sun, dye D205, TiO2 3.2 μm): 64% | short-circuit current density ISC (0.1 sun, dye D205, TiO2 3.2 μm): 0.56 mA/cm^2 | terminal voltage VOC with an open circuit (0.1 sun, dye D205, TiO2 3.2 μm): 0.74 V | efficiency [10]: 3.3% | fill factor (FF) [10]: 45% | short-circuit current density ISC [10]: 8.77 mA/cm^2 | terminal voltage VOC with an open circuit [10]: 0.84 V | efficiency (1 sun, dye D205, TiO2 3.2 μm): 2.8% | fill factor (FF) (1 sun, dye D205, TiO2 3.2 μm): 51% | short-circuit current density ISC (1 sun, dye D205, TiO2 3.2 μm): 6.57 mA/cm^2 | terminal voltage VOC with an open circuit (1 sun, dye D205, TiO2 3.2 μm): 0.84 V

COc1ccc(N(c2ccc(OC)cc2)c2ccc(-c3ccc(N(c4ccc(OC)cc4)c4ccc5c(c4)Cc4cc(N(c6ccc(OC)cc6)c6ccc(-c7ccc(N(c8ccc(OC)cc8)c8ccc(OC)cc8)cc7)cc6)ccc4-5)cc3)cc2)cc1 [ID523]
efficiency (0.1 sun, dye D205, TiO2 3.2 μm): 4.1% | fill factor (FF) (0.1 sun, dye D205, TiO2 3.2 μm): 58% | short-circuit current density ISC (0.1 sun, dye D205, TiO2 3.2 μm): 0.95 mA/cm^2 | terminal voltage VOC with an open circuit (0.1 sun, dye D205, TiO2 3.2 μm): 0.74 V | efficiency [11]: 0.9% | fill factor (FF) [11]: 64% | short-circuit current density ISC [11]: 0.21 mA/cm^2 | terminal voltage VOC with an open circuit [11]: 0.64 V | efficiency (1 sun, dye D205, TiO2 3.2 μm): 1.8% | fill factor (FF) (1 sun, dye D205, TiO2 3.2 μm): 34% | short-circuit current density ISC (1 sun, dye D205, TiO2 3.2 μm): 6.76 mA/cm^2 | terminal voltage VOC with an open circuit (1 sun, dye D205, TiO2 3.2 μm): 0.80 V | efficiency [12]: 1.3% | fill factor (FF) [12]: 59% | short-circuit current density ISC [12]: 3.40 mA/cm^2 | terminal voltage VOC with an open circuit [12]: 0.66 V

COc1ccc(N(c2ccc(C)cc2)c2ccc(-c3ccc(N(c4ccc(OC)cc4)c4ccc(-c5ccc(N(c6ccc(OC)cc6)c6ccc(-c7ccc(N(c8ccc(C)cc8)c8ccc(OC)cc8)cc7)cc6)cc5)cc4)cc3)cc2)cc1 [ID572]
efficiency [1]: 4.5% | fill factor (FF) [1]: 58% | short-circuit current density ISC [1]: 0.91 mA/cm^2 | terminal voltage VOC with an open circuit [1]: 0.84 V | efficiency [5]: 3.1% | fill factor (FF) [5]: 40% | short-circuit current density ISC [5]: 8.52 mA/cm^2 | terminal voltage VOC with an open circuit [5]: 0.92 V

COc1ccc(N(c2ccc(OC)cc2)c2ccc3c(c2)C2(c4cc(N(c5ccc(OC)cc5)c5ccc(OC)cc5)ccc4-3)c3cc(N(c4ccc(OC)cc4)c4ccc(OC)cc4)ccc3-c3ccc(N(c4ccc(OC)cc4)c4ccc(OC)cc4)cc32)cc1 [spiro-MeOTAD, 2,2′,7,7′-tetrakis(N,N-di-p-methoxyphenyl-amine)-9,9′-spirobifluorene, reference compound]
efficiency [1]: 5.6% | fill factor (FF) [1]: 69% | short-circuit current density ISC [1]: 1.10 mA/cm^2 | terminal voltage VOC with an open circuit [1]: 0.74 V | efficiency [9]: 4.7% | fill factor (FF) [9]: 69% | short-circuit current density ISC [9]: 0.92 mA/cm^2 | terminal voltage VOC with an open circuit [9]: 0.74 V | efficiency (0.1 sun, dye D205, TiO2 3.2 μm): 4.7% | fill factor (FF) (0.1 sun, dye D205, TiO2 3.2 μm): 68% | short-circuit current density ISC (0.1 sun, dye D205, TiO2 3.2 μm): 0.95 mA/cm^2 | terminal voltage VOC with an open circuit (0.1 sun, dye D205, TiO2 3.2 μm): 0.72 V | efficiency [2]: 4.9% | fill factor (FF) [2]: 68% | short-circuit current density ISC [2]: 0.96 mA/cm^2 | terminal voltage VOC with an open circuit [2]: 0.76 V | efficiency [3]: 1.2% | fill factor (FF) [3]: 55% | short-circuit current density ISC [3]: 0.37 mA/cm^2 | terminal voltage VOC with an open circuit [3]: 0.60 V | efficiency [4]: 2.7% | fill factor (FF) [4]: 70% | short-circuit current density ISC [4]: 0.52 mA/cm^2 | terminal voltage VOC with an open circuit [4]: 0.74 V | efficiency [11]: 1.0% | fill factor (FF) [11]: 66% | short-circuit current density ISC [11]: 0.25 mA/cm^2 | terminal voltage VOC with an open circuit [11]: 0.62 V | efficiency [5]: 4.0% | fill factor (FF) [5]: 47% | short-circuit current density ISC [5]: 10.60 mA/cm^2 | terminal voltage VOC with an open circuit [5]: 0.80 V | efficiency [10]: 3.7% | fill factor (FF) [10]: 50% | short-circuit current density ISC [10]: 9.10 mA/cm^2 | terminal voltage VOC with an open circuit [10]: 0.82 V | efficiency (1 sun, dye D205, TiO2 3.2 μm): 2.9% | fill factor (FF) (1 sun, dye D205, TiO2 3.2 μm): 37% | short-circuit current density ISC (1 sun, dye D205, TiO2 3.2 μm): 10.0 mA/cm^2 | terminal voltage VOC with an open circuit (1 sun, dye D205, TiO2 3.2 μm): 0.78 V | efficiency [6]: 3.9% | fill factor (FF) [6]: 49% | short-circuit current density ISC [6]: 9.32 mA/cm^2 | terminal voltage VOC with an open circuit [6]: 0.86 V | efficiency [7]: 0.9% | fill factor (FF) [7]: 54% | short-circuit current density ISC [7]: 2.58 mA/cm^2 | terminal voltage VOC with an open circuit [7]: 0.68 V | efficiency [8]: 2.9% | fill factor (FF) [8]: 56% | short-circuit current density ISC [8]: 6.87 mA/cm^2 | terminal voltage VOC with an open circuit [8]: 0.76 V | efficiency [12]: 1.5% | fill factor (FF) [12]: 57% | short-circuit current density ISC [12]: 3.97 mA/cm^2 | terminal voltage VOC with an open circuit [12]: 0.66 V
